PubChem BioAssay AID1671190 (National Center for Advancing Translational Sciences (NCATS), 2021)
Where “and” joins values, the source holds several entries; their conditions need not be identical. Equal entries are not always repeated. Among all 580,000 compounds or so, about 6,100 (1.1%) were called active. The shares of active, inactive and inconclusive entries below differ from those in the screen. Calls come from the whole dose curve; as a rule, active = well fitted inhibition curve with a large enough effect; inconclusive = small, poorly fitted or top-dose-only effect, or another doubt; inactive = no such curve, though single readings can be large or run the other way. Potencies beside an inconclusive call are fits to weak or partial responses and may not hold up.

Protein sequences, listed by entry. Tags and fused reporters are not part of them. Lines headed by an entry give the natural chain unless they say otherwise; changes in a name come on top.
UniProt P18054: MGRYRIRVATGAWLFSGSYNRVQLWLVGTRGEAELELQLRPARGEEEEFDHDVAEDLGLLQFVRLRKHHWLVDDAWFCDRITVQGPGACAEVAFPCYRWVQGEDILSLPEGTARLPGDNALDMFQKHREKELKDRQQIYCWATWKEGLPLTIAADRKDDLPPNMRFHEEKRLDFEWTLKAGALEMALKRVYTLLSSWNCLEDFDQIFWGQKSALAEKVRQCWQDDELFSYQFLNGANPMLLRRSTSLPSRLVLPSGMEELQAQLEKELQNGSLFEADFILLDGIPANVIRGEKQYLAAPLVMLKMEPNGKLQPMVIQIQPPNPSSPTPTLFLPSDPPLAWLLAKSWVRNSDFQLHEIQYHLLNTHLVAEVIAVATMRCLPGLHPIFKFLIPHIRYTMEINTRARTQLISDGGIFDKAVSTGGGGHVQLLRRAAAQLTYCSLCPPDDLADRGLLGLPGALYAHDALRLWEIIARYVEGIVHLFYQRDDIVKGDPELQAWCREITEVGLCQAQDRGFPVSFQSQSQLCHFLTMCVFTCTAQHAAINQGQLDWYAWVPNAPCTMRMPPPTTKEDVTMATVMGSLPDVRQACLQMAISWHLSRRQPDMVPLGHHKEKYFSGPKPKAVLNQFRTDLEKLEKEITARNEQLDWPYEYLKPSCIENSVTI

molecular target: Polyunsaturated fatty acid lipoxygenase ALOX12 (Homo sapiens) (UniProt P18054); assay: Primary qHTS assay for inhibitors of human arachidonate 12S-lipoxygenase (ALOX12): Round 2; conditions: purified 12hLO, xylenol orange hydroperoxide absorbance; activity change, negative = inhibition: at 108 µM (top of the series) unless noted
Outline: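 Purified human 12hLO at 150 nM in 25 mM Hepes, 0.01% Triton X-100, pH 7.0, preincubated 15 min at room temperature with compound. Reaction started with 40 uM arachidonic acid, 30 min at room temperature. Hydroperoxide measured by Fe-xylenol orange, 573/405 nm absorbance ratio.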
% is set by controls: 0 for no effect and ±100 for the full control effect; potency is the fitted concentration of half-maximal effect.

For COc1ccc(/C=N\NC(=O)c2ccccc2)cc1COc1ccc(F)cc1, which “activity change, negative = inhibition” value is on record?
The value was inactive: 7.5%.

Which “activity change, negative = inhibition” value does the source give for COCC[C@]1(O)CCN(C(=O)CCCc2cccs2)C[C@H]1C here?
The value was inactive: 34.6%.

How did the Potency turn out when Cc1cnc(CNc2nc3cc(-c4ccccc4C)sc3c(=O)n2C)cn1 was run?
Its Potency is inconclusive: 56.2 µM [inhibitor, single point].

CC(OC(=O)c1ccc(-c2ccc(O)cc2)cc1)C(=O)NC1CCCCC1C (centres undefined) was tested. Which “activity change, negative = inhibition” value did it give?
Its value is inactive: -10.2%.

With COCCCNC(=S)NC(=O)c1ccccc1 as the compound, how does the Potency read?
Its Potency is inconclusive: 50.1 µM [inhibitor, partial curve, poor fit].

With c1ccc(Oc2nc(NC3CCCCC3)c3[nH]cnc3n2)cc1 as the compound, how does the Potency read?
The Potency was inconclusive: 1.12 µM [inhibitor, full curve, poor fit].

How did the Potency turn out when COc1ccc(C(=O)Nc2ccnn2Cc2cccs2)cc1S(=O)(=O)N(C)Cc1ccccc1 was run?
Its Potency is inconclusive: 44.7 µM [inhibitor, partial curve, poor fit].

How did the Potency turn out when CC(=O)Nc1cccc(-c2cnc3n[nH]c(-c4sccc4C)c3n2)c1 was run?
Its Potency is inconclusive: 70.8 µM [inhibitor, partial curve, poor fit].

For CCOC(=O)c1c(NC(=O)CN2CCN(S(=O)(=O)c3cc(Cl)ccc3Cl)CC2)sc(C(=O)N(C)C)c1C, which “activity change, negative = inhibition” value is on record?
The value was inactive: -19.9%.

How did the “activity change, negative = inhibition” value turn out when Cc1cccc(C(C)(C)C)c1OCCOCCN1CCCC1 was run?
The value was inactive: -27.6%.

With COc1cc(/C=C2\COC/C(=C\c3ccc(O)c(OC)c3)C2=O)ccc1O as the compound, how does the Potency read?
Its Potency is inconclusive: 44.7 µM [inhibitor, partial curve, poor fit].

For O=C(CSc1ccc(-c2cccnc2)nn1)c1ccc([N+](=O)[O-])cc1, which “activity change, negative = inhibition” value is on record?
Its value is inactive: -8.51%.

For CCOC(=O)CSc1nc(N)cc(=O)[nH]1, which Potency is on record?
Its Potency is inconclusive: 50.1 µM [inhibitor, partial curve, poor fit].

Which Potency does the source give for CCN(C(=O)Cn1c(SCC(=O)Nc2ccc(OC)cc2)nc2ccccc21)c1cccc(C)c1 here?
The Potency was inconclusive: 112 µM [inhibitor, partial curve, poor fit].

How did the Potency turn out when CC(C)(C)c1ccc(C(=O)NNc2ncnc3c2cnn3-c2ccccc2)cc1 was run?
The Potency was inconclusive: 89.1 µM [inhibitor, single point].

Which “activity change, negative = inhibition” value does the source give for CC(C)(C)c1ccc(/C=N/Nc2nncn2N)cc1 here?
The value was inactive: 16.4%.

How did the “activity change, negative = inhibition” value turn out when COc1ccc(N2CCN(C(=O)c3ccc(CS(=O)(=O)c4ccc(OC)cc4)o3)CC2)cc1 was run?
Its value is inactive: -16.9%.

How did the Potency turn out when COc1cccc(C(=O)Nc2ccc3oc(-c4cccnc4)nc3c2)c1 was run?
Its Potency is inconclusive: 39.8 µM [inhibitor, full curve, poor fit].

For COc1ccc(-c2nc3c(c(SCC(=O)N4CCOCC4)n2)COC(C)(C)C3)cc1, which Potency is on record?
Its Potency is inconclusive: 89.1 µM [inhibitor, partial curve, poor fit].

Which Potency does the source give for COc1cccc(CNc2ccc([N+](=O)[O-])cc2Cl)c1O here?
Its Potency is inconclusive: 44.7 µM [inhibitor, partial curve].

Which “activity change, negative = inhibition” value does the source give for Cc1ccc(Oc2ccccc2/C=C2\SC(=O)N(C)C2=O)cc1 here?
The value was inactive: -11.1%.

Which Potency does the source give for C=C(C)Cn1c(-c2cccs2)n[nH]c1=S here?
Its Potency is inconclusive: 50.1 µM [inhibitor, partial curve, poor fit].

C[C@@H]1CN([C@H](C)CO)S(=O)(=O)c2ccc(C#Cc3ccccc3)cc2O[C@@H]1CN(C)C(=O)CN(C)C was tested. Which “activity change, negative = inhibition” value did it give?
The value was inactive: 8.02%.

For CN1C(=O)C(n2ccc3ccccc32)c2cc(OC(F)(F)F)ccc21 (centres undefined), which Potency is on record?
Its Potency is inconclusive: 89.1 µM [inhibitor, partial curve, poor fit].

OC(CN1CCN(Cc2ccccc2)CC1)Cn1c2ccccc2c2ccccc21 (centres undefined) was tested. Which Potency did it give?
The Potency was inconclusive: 56.2 µM [inhibitor, partial curve, poor fit].

With O=C(NCc1n[nH]c(=S)n1-c1ccc([N+](=O)[O-])cc1)c1ccc(S(=O)(=O)N2CCOCC2)cc1 as the compound, how does the Potency read?
Its Potency is inconclusive: 56.2 µM [inhibitor, partial curve, poor fit].

How did the “activity change, negative = inhibition” value turn out when CCN(CC)S(=O)(=O)c1cccc(C(=O)/C=C2/N(C)c3ccccc3C2(C)C)c1 was run?
The value was inactive: -13.2%.

How did the “activity change, negative = inhibition” value turn out when Cc1cc(C)nc(Nc2nc(-c3ccccc3)cs2)n1 was run?
The value was inactive: 5.21%.

Cc1ccc(Oc2nc3c(c(=O)n(Cc4ccccc4)c(=O)n3C)n2C)cc1C was tested. Which “activity change, negative = inhibition” value did it give?
Its value is inactive: -11.9%.

For O=C(NCc1cccnc1)c1ccc(Cl)c(S(=O)(=O)N2CCCCCC2)c1, which “activity change, negative = inhibition” value is on record?
Its value is inactive: -5.92%.

With COc1ccc(-c2nc(N)n(C(=O)c3ccc(Cl)cc3)n2)cc1 as the compound, how does the “activity change, negative = inhibition” value read?
The value was inactive: -7.98%.

CCCn1c(=N)c(C(=O)NCc2cccnc2)cc2c(=O)n3cccc(C)c3nc21 was tested. Which “activity change, negative = inhibition” value did it give?
The value was inactive: 0%.

With CCCCCCn1cc(CN2CC(N3CCN(Cc4cccc(C)c4)CC3)CS2(=O)=O)nn1 (centres undefined) as the compound, how does the Potency read?
Its Potency is inconclusive: 39.8 µM [inhibitor, partial curve].

With COc1ccc(NC2=CC(=O)CC(C)(C)C2)cc1 as the compound, how does the “activity change, negative = inhibition” value read?
The value was inactive: 16.4%.

For O=C(Cn1cnnn1)N1CCC(c2nccn2Cc2cccnc2)CC1, which Potency is on record?
The Potency was inconclusive: 10 µM [inhibitor, partial curve, poor fit].

How did the Potency turn out when O=C(O)c1cccc2c1/C(=N/O)c1ccccc1-2 was run?
The Potency was inconclusive: 112 µM [inhibitor, single point].

Which Potency does the source give for O=C(CSc1nc(=O)n2ccccc2n1)N1CCCc2ccccc21 here?
The Potency was inconclusive: 4.47 µM [inhibitor, full curve, poor fit].

With Cc1ccc(CNc2ccc(N3CCN(C)CC3=O)cc2)cc1 as the compound, how does the Potency read?
Its Potency is inconclusive: 44.7 µM [inhibitor, partial curve, poor fit].

For Cc1ccc(-c2nc3ccccn3c2Nc2ccc3c(c2)OCCO3)s1, which Potency is on record?
The Potency was inconclusive: 17.8 µM [inhibitor, partial curve].

Which “activity change, negative = inhibition” value does the source give for CC1(C)COC(c2ccc(F)c([N+](=O)[O-])c2)=N1 here?
Its value is inactive: -17.7%.

With NC(=O)[C@H](Cc1cccs1)NC(=O)C1=C[C@@H](NC(=O)NC2CCCCC2)[C@@H](O)[C@H](O)C1 as the compound, how does the “activity change, negative = inhibition” value read?
The value was inactive: 12.6%.

CC(C)(/C=N/O)/[N+]([O-])=C/c1ccc(Cl)cc1Cl was tested. Which Potency did it give?
Its Potency is inconclusive: 89.1 µM [inhibitor, single point].

How did the Potency turn out when Cc1ccc(NC(=O)c2nc3ccccc3nc2N2CCOCC2)cc1Cl was run?
Its Potency is inconclusive: 56.2 µM [inhibitor, partial curve, poor fit].

How did the “activity change, negative = inhibition” value turn out when O=C(Nc1cccc(Cl)c1)N1CCOC(CN(CC2CC2)C(=O)c2cccc(F)c2)C1 (centres undefined) was run?
The value was inactive: 1.58%.

How did the Potency turn out when Cc1nc(-c2c(Cl)cccc2Cl)sc1C(=O)N1CCCC(C(=O)O)C1 (centres undefined) was run?
Its Potency is inconclusive: 28.2 µM [inhibitor, partial curve, poor fit].

Which “activity change, negative = inhibition” value does the source give for O=c1c2cc([N+](=O)[O-])ccc2nc2n1CCCC2 here?
The value was inactive: 0%.

Cc1ccc2nc(C)c(C(=O)OCC(=O)NCC3CCCO3)cc2c1 (centres undefined) was tested. Which “activity change, negative = inhibition” value did it give?
Its value is inactive: -21.5%.

CC(=O)OCc1c(-c2ccccc2)c2cc([N+](=O)[O-])ccc2n1C was tested. Which “activity change, negative = inhibition” value did it give?
Its value is inactive: 0.0606%.

How did the Potency turn out when COc1ccc2c(c1)CC(C(=O)NCCN1CCN(c3cccc(Cl)c3)CC1)CO2 (centres undefined) was run?
The Potency was inconclusive: 141 µM [inhibitor, single point].

Which Potency does the source give for CCCc1ccc(OCC(=O)Nc2scc(-c3cccs3)c2C(=O)OC)cc1 here?
The Potency was inconclusive: 56.2 µM [inhibitor, partial curve, poor fit].

With CCc1ccc(OCC(O)CN2CCN(c3ccccc3)CC2)cc1 (centres undefined) as the compound, how does the Potency read?
The Potency was inconclusive: 50.1 µM [inhibitor, partial curve, poor fit] and inconclusive: 44.7 µM [inhibitor, partial curve].

Cc1cc(NC(=O)C(C)C)ccc1Br was tested. Which “activity change, negative = inhibition” value did it give?
The value was inactive: 16.5%.

For COc1cc(-c2nnc3sc(COc4ccc(C(C)(C)C)cc4)nn23)cc(OC)c1OC, which Potency is on record?
Its Potency is inconclusive: 31.6 µM [inhibitor, partial curve, poor fit].

O=S(=O)(NC(=S)c1ccccc1)c1ccccc1 was tested. Which Potency did it give?
Its Potency is inconclusive: 35.5 µM [inhibitor, partial curve, poor fit].

How did the “activity change, negative = inhibition” value turn out when CCCCCn1c(CN2CCN(Cc3ccccc3)CC2)nc2c1c(=O)n(C)c(=O)n2C was run?
The value was inactive: -0.821%.

How did the “activity change, negative = inhibition” value turn out when CCOC(=O)Cc1csc(N/N=C\c2cccc(Br)c2)n1 was run?
The value was inactive: -13.8%.

With COc1cc(C2C(C#N)=C(N)N(Nc3ccccc3)C3=C2C(=O)CC(C)(C)C3)ccc1OCc1cccc(F)c1 (centres undefined) as the compound, how does the “activity change, negative = inhibition” value read?
Its value is inactive: -21.1%.

CN(C(=O)COC(=O)c1cc([N+](=O)[O-])ccc1N1CCOCC1)C1CCCCC1 was tested. Which Potency did it give?
The Potency was inconclusive: 50.1 µM [inhibitor, single point].

How did the “activity change, negative = inhibition” value turn out when O=C(c1ccc2c(c1)N(Cc1ccc(F)cc1)CCS2)N1CCN(c2ccccc2)CC1 was run?
Its value is inactive: -10.2%.

For Cc1ccc(Cn2c(C3CCN(C(=O)c4ccc(C(C)(C)C)cc4)CC3)n[nH]c2=O)cc1, which Potency is on record?
Its Potency is inconclusive: 22.4 µM [inhibitor, partial curve].

Which “activity change, negative = inhibition” value does the source give for Cc1ccc(-n2ncc(C(=O)NC3CCCCC3)c2N)cc1 here?
Its value is inactive: -24%.

With Fc1ccccc1C(c1nnnn1Cc1ccc2c(c1)OCO2)N1CCN(Cc2ccccc2)CC1 (centres undefined) as the compound, how does the Potency read?
The Potency was inconclusive: 89.1 µM [inhibitor, partial curve, poor fit].

Which Potency does the source give for O=C(NCc1ccccc1)C(c1ccccc1)N(C(=O)c1csnn1)c1ccc(F)cc1 (centres undefined) here?
Its Potency is inconclusive: 50.1 µM [inhibitor, partial curve, poor fit].

For COCCCNC(=O)CSc1nc2ccccc2c(=O)n1CCCC(=O)NCC1CCCO1 (centres undefined), which Potency is on record?
Its Potency is inconclusive: 17.8 µM [inhibitor, full curve, poor fit].

For CN(Cc1ccccc1F)C(=O)CN1C(=O)NC2(CCc3ccccc32)C1=O (centres undefined), which “activity change, negative = inhibition” value is on record?
The value was inactive: -5.58%.

Which Potency does the source give for COC(=O)c1ccc2nc(-c3ccccc3)c(Cc3cccc(F)c3)n2c1 here?
Its Potency is inconclusive: 31.6 µM [inhibitor, single point].

With CCOC(=O)c1c(NC(=O)Cn2nnc(-c3ccccc3)n2)sc(CC)c1C as the compound, how does the Potency read?
The Potency was active: 12.6 µM.

How did the Potency turn out when COCCN1CN(S(=O)(=O)c2ccccc2)c2nc3ccccc3nc21 was run?
The Potency was inconclusive: 39.8 µM [inhibitor, partial curve, poor fit].

For CNc1nc(-c2ccc3c(c2)CCN3C(=O)CC(C)(C)C)c(C)s1, which Potency is on record?
Its Potency is inconclusive: 50.1 µM [inhibitor, partial curve, poor fit].
